Measurements from the supplement of paper PMC3334620.
Whole data set: some 33,000 sequences, median “E-score (-0.5 to 0.5)” near -0.0014, cut for the highest 2% near 0.25. The list shows a part of the results.

These sequences were tested against T1, Cad1 (UniProt P24813) (assay: PBM E-score (8-mer binding enrichment) (E-score (-0.5 to 0.5)); higher = stronger / more preferred TF binding). Details: protein concentration: 100 nM; construct: GST-full length.
T1 sequence: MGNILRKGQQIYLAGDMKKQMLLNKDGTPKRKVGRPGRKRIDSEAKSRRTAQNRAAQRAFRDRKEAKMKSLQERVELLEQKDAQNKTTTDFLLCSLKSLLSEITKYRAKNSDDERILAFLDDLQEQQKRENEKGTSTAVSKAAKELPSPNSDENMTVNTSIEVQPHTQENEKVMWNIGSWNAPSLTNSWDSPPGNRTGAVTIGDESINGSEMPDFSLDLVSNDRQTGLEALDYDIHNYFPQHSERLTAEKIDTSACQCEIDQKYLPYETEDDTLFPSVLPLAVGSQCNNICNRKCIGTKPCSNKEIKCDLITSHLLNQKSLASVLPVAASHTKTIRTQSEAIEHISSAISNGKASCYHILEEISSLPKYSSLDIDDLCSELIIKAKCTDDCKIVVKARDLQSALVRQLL
In short: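 Each ungapped eight-base word and its reverse complement, pooled, received an E-score from the Universal PBM Analysis Suite. Underlying scans, normalised with masliner, recorded fluorescent anti-GST bound to GST-tagged yeast transcription factors. These were applied at about 100-200 nM to universal all-10-mer Agilent arrays double-stranded by primer extension.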

Sequence	PBM E-score
CAATCAGG	-0.00207
TATGACAA	0.181
CAAGCTTA	0.159
GACTGTCC	-0.25
GCCGGCCC	-0.0332
GGGAAAAC	-0.117
ATTAAGTA	0.136
CGTTAATA	0.134
GGGACAAC	0.0152
CGGTTAGC	-0.0801
ACCATTCG	-0.272
CGTAAGTC	0.0451
ATTGCAAA	0.112
CCGACAAC	0.0144
AATGAGAA	-0.0166
CCTGTACC	-0.193
TATAACAA	0.24
ATTTCGTC	0.0814
CCCGAGGG	-0.11
GTGAAGTA	-0.00442
ACCCACCT	-0.236
AGTCGAAT	-0.0974

Sequence	PBM E-score
AACCGTTC	0.136
AGGTGGGC	-0.179
CCTGTCAC	-0.103
GAGAAGTA	-0.0394
ATTGCACA	0.00451
CGCACGAC	-0.0123
CGGGGAGC	-0.236
CGTCACAG	0.168
AGTGTGAT	0.0478
ACGCACAC	0.191
ATAAGCGA	0.287
AGTTCCTA	0.131
AGCACCCA	-0.174
GAGGGGGA	-0.425
ATACGAAC	0.134
CTCCCAGA	-0.181
GCCATGGC	-0.0289
ACAGAAGC	0.0315
AAACTACA	0.0808
ACGGCAGA	-0.0245
CATCGAAC	0.0545
ACTGATCG	-0.157

Sequence	PBM E-score
GCCTGGGA	-0.136
ATAATGCG	0.154
GGCTCCCC	-0.343
CGGGATAC	0.0497
ATCATGTG	0.0644
AACTTAGT	0.0252
ATGTACGC	0.0214
GCCCGCAC	0.0116
ACGATATG	0.0812
ACATTTAA	0.253
CTCTTAAC	-0.0361
ACGAGAAC	0.0717
GCACGGTA	-0.0652
CTGACTCC	-0.127
AAACCCTC	-0.143
TGTATAAA	0.028
ACAGAACC	0.0474
TATCAAGA	0.132
AACGCTTG	-0.159
ACCTGATC	-0.111
AACGATGA	-0.00908
ACCCATAT	0.0913

Reformatted as labelled records: entries from further up.
ACAGAACC
  PBM E-score = 0.0474
TATCAAGA
  PBM E-score = 0.132
AACGCTTG
  PBM E-score = -0.159
ACCTGATC
  PBM E-score = -0.111

The listing continues:

Sequence	PBM E-score
GTTTACGA	0.0667
ACTCGGAG	-0.0623
CCGCTCCG	-0.214
CAGGCGCG	0.0497
CGAGAGCG	0.033
TACTATAA	0.152
CAGCAACC	-0.00386
ACCGATTA	0.123
AATAGGTC	0.0355
ACTCGCTA	-0.041
AATACCTG	-0.0148
GAACAGGC	-0.0362
CCTCCGAA	-0.177
AATAGCGA	0.214
GCCCGGAC	-0.285
AAACCACT	0.0983
CTGATTGA	-0.0321
GCACTTCC	-0.204
TAGGCAAA	-0.158
AAAGGCGG	0.0211
